Measurements reported in PubChem BioAssay AID1159578 (Peter MacCallum Cancer Centre, 2015)
In all, the deposit lists about 18,000 reagents; shown is a random part of them. In the full data, about 1,030 (5.7%) were called active. 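Inactive calls also include pools with fewer than 3300 nuclei, whose migration was not assessed.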 The raw values are shown without normalisation. Further read-outs or replicates are left out here. Reagent sequences are not shown.

Aim: 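Knock-downs that alter how fast lymphatic endothelial cells migrate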 (primary screen)
Cell system: human lymphatic endothelial cells
Knock-down reagent: siRNA pool against human genes, 40 nM
Timing: 48 h after transfection
Read-out: 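High-content imaging of dye-stained cells in a scratch assay measures filled wound area and nuclei per well; duplicate means given as ratio to mock and robust z-score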
Scale: migration robust z-score: higher = faster migration into the scratch; nuclei per well: higher = more cells in the well
Hit rule: 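Pools averaging fewer than 3300 nuclei are never called; remaining pools count as changed when migration robust z lies outside -2 to 2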
Meaning of the calls: active = migration changed; inactive = no migration change, or too few cells

target gene	migration robust z-score	migration class with cell-count check	nuclei per well, duplicate mean	Outcome
PRR18 (proline rich 18)	-0.57	migration z between -2 and 2; enough cells	5694	inactive
MYO10 (myosin X)	-0.42	migration z between -2 and 2; enough cells	5895	inactive
ANP32D (acidic nuclear phosphoprotein 32 family member D)	0.13	migration z between -2 and 2; enough cells	5952	inactive
KCTD13 (potassium channel tetramerization domain containing 13)	-0.42	migration z between -2 and 2; enough cells	4522	inactive
C1orf146 (chromosome 1 open reading frame 146)	-0.52	migration z between -2 and 2; enough cells	5936	inactive
SYNGAP1 (synaptic Ras GTPase activating protein 1)	-2.31	migration z below -2; enough cells	5302	active
IFNGR2 (interferon gamma receptor 2)	0.16	migration z between -2 and 2; enough cells	5939	inactive
SYP (synaptophysin)	0.62	migration z between -2 and 2; enough cells	5202	inactive
ACTL6B (actin like 6B)	0.45	migration z between -2 and 2; enough cells	5698	inactive
PIN4 (peptidylprolyl cis/trans isomerase, NIMA-interacting 4)	-0.03	migration z between -2 and 2; enough cells	6843	inactive
DEFA6 (defensin alpha 6)	-0.76	migration z between -2 and 2; enough cells	5390	inactive
TMEM141 (transmembrane protein 141)	-0.46	migration z between -2 and 2; enough cells	4936	inactive
ZAR1 (zygote arrest 1)	-0.04	migration z between -2 and 2; enough cells	5519	inactive
AKAP17A (A-kinase anchoring protein 17A)	-0.99	migration z between -2 and 2; enough cells	5646	inactive
LGALS12 (galectin 12)	1.76	migration z between -2 and 2; enough cells	5436	inactive
ARL5A (ARF like GTPase 5A)	0.15	migration z between -2 and 2; enough cells	5389	inactive
CCNB1 (cyclin B1)	-1.87	under 3300 nuclei; migration not judged	2888	inactive
DCLK2 (doublecortin like kinase 2)	-1.43	migration z between -2 and 2; enough cells	6370	inactive
SVOP (SV2 related protein)	0.08	migration z between -2 and 2; enough cells	5545	inactive
TBC1D20 (TBC1 domain family member 20)	0.42	migration z between -2 and 2; enough cells	5904	inactive
KRT6B (keratin 6B)	3.06	migration z above 2; enough cells	6798	active
RPL36A (ribosomal protein L36a)	-0.52	migration z between -2 and 2; enough cells	6064	inactive
GPALPP1 (GPALPP motifs containing 1)	-0.15	migration z between -2 and 2; enough cells	7176	inactive
MED30 (mediator complex subunit 30)	1.55	migration z between -2 and 2; enough cells	5332	inactive
CA8 (carbonic anhydrase 8 (inactive))	-0.78	migration z between -2 and 2; enough cells	4786	inactive
ROS1 (ROS proto-oncogene 1, receptor tyrosine kinase)	-0.05	migration z between -2 and 2; enough cells	6442	inactive
PPP1R18 (protein phosphatase 1 regulatory subunit 18)	-1.29	migration z between -2 and 2; enough cells	5734	inactive
HOXC4 (homeobox C4)	0.34	migration z between -2 and 2; enough cells	4933	inactive
CARS1 (cysteinyl-tRNA synthetase 1)	-0.16	migration z between -2 and 2; enough cells	3410	inactive
OR2T12 (olfactory receptor family 2 subfamily T member 12)	-1.35	migration z between -2 and 2; enough cells	5604	inactive
STX12 (syntaxin 12)	-0.89	migration z between -2 and 2; enough cells	4840	inactive
DDX24 (DEAD-box helicase 24)	-0.52	migration z between -2 and 2; enough cells	5239	inactive
DDX21 (DExD-box helicase 21)	1.02	migration z between -2 and 2; enough cells	4582	inactive
DBR1 (debranching RNA lariats 1)	-0.1	migration z between -2 and 2; enough cells	5919	inactive
TRIM42 (tripartite motif containing 42)	0.39	migration z between -2 and 2; enough cells	5100	inactive
CKAP2L (cytoskeleton associated protein 2L)	0.76	migration z between -2 and 2; enough cells	4118	inactive
CDC5L (cell division cycle 5 like)	-0.24	migration z between -2 and 2; enough cells	4553	inactive
SEM1 (SEM1 26S proteasome subunit)	0.13	migration z between -2 and 2; enough cells	5862	inactive
FAM193B (family with sequence similarity 193 member B)	0.6	migration z between -2 and 2; enough cells	4352	inactive
HSD17B14 (hydroxysteroid 17-beta dehydrogenase 14)	0.05	migration z between -2 and 2; enough cells	3584	inactive
KRT6C (keratin 6C)	-0.9	migration z between -2 and 2; enough cells	6413	inactive
LGALS7B (galectin 7B)	-0.56	migration z between -2 and 2; enough cells	6042	inactive
FUT2 (fucosyltransferase 2 (H blood group))	-0.16	migration z between -2 and 2; enough cells	5938	inactive
EZR (ezrin)	0.19	migration z between -2 and 2; enough cells	5600	inactive
PLEKHA1 (pleckstrin homology domain containing A1)	0.37	migration z between -2 and 2; enough cells	6162	inactive
CHCT1 (CHD1 helical C-terminal domain containing 1)	2.92	migration z above 2; enough cells	5675	active
UCP1 (uncoupling protein 1)	0.29	migration z between -2 and 2; enough cells	6702	inactive
OR2G2 (olfactory receptor family 2 subfamily G member 2)	-0.57	migration z between -2 and 2; enough cells	5556	inactive
FANCC (FA complementation group C)	0.52	migration z between -2 and 2; enough cells	6306	inactive
SLC25A10	0.26	migration z between -2 and 2; enough cells	5108	inactive
ENDOG (endonuclease G)	-0.8	migration z between -2 and 2; enough cells	5598	inactive
FNTB (farnesyltransferase, CAAX box, subunit beta)	-0.16	migration z between -2 and 2; enough cells	6222	inactive
C1QTNF4 (C1q and TNF related 4)	-0.18	migration z between -2 and 2; enough cells	5682	inactive
VPREB1 (V-set pre-B cell surrogate light chain 1)	1.05	migration z between -2 and 2; enough cells	6762	inactive
ANKRD30A (ankyrin repeat domain 30A)	0.7	migration z between -2 and 2; enough cells	5392	inactive
CHRNA3 (cholinergic receptor nicotinic alpha 3 subunit)	0.08	migration z between -2 and 2; enough cells	3790	inactive
NNAT (neuronatin)	-0.57	migration z between -2 and 2; enough cells	5668	inactive

Targets above whose target name starts with E or e:
target gene	migration robust z-score	migration class with cell-count check	nuclei per well, duplicate mean	Outcome
EZR (ezrin)	0.19	migration z between -2 and 2; enough cells	5600	inactive
ENDOG (endonuclease G)	-0.8	migration z between -2 and 2; enough cells	5598	inactive
